Measured values as given in patent US11090319B2, “Therapeutic uses of pharmaceutical compositions comprising cyclic boronic acid ester derivatives” (Melinta Subsidiary Corp., priority 2010, dated 2021).
At least one read-out could not be matched to a standard name with certainty.

Assays:
EC1007 KPC-3 = format: cell-based, Escherichia coli
[1] = tested on: strains expressing class A ESBLs; format: cell-based
[2] = tested on: strains expressing class C and D enzymes; format: cell-based

Row | Compound | AZT MPC4 KPC-3 EC1007 (EC1007 KPC-3) | AZT MPC4 CTX-M-14 KP1005 [1] | AZT MPC4 CTX-M-15 KP1009 [1] | AZT MPC4 SHV-5 ec308 [1] | AZT MPC4 SHV-12 KP1010 [1] | AZT MPC4 SHV-18 KP1012 [1] | AZT MPC4 TEM-10 EC1009 [1] | AZT MPC4 TEM-10 ec302 [1] | AZT MPC4 TEM-26 ec304 [1] | AZT MPC@4 CMY-6 EC1010 [2] | AZT MPC@4 ECL1002 [2] | AZT MPC@4 OXA-2, KPX1001 [2] | AZT MPC@4 OXA-10, qnrB4 KP1007 [2] | AZT MPC@4 PAM2035 [2]
1 | O=C(O)C[C@@H]1CC[C@H](NC(=O)Cc2ccncc2)B(O)O1 [Compound 49, 2-((3R,6S)-2-hydroxy-3-(2-(pyridin-4-yl)acetamido)-1,2-oxaborinan-6-yl)acetic acid] | X (key: X: MPC@4 of less than 5 μg/mL; Y: MPC@4 of 5 μg/mL to 20 μg/mL; Z: MPC@4 of greater than 20 μg/mL) | Z (key: X: MPC@4 of less than 5 μg/mL; Y: MPC@4 of 5 μg/mL to 20 μg/mL; Z: MPC@4 of greater than 20 μg/mL) | Z (key: X: MPC@4 of less than 5 μg/mL; Y: MPC@4 of 5 μg/mL to 20 μg/mL; Z: MPC@4 of greater than 20 μg/mL) | Z (key: X: MPC@4 of less than 5 μg/mL; Y: MPC@4 of 5 μg/mL to 20 μg/mL; Z: MPC@4 of greater than 20 μg/mL) | Z (key: X: MPC@4 of less than 5 μg/mL; Y: MPC@4 of 5 μg/mL to 20 μg/mL; Z: MPC@4 of greater than 20 μg/mL) | Y (key: X: MPC@4 of less than 5 μg/mL; Y: MPC@4 of 5 μg/mL to 20 μg/mL; Z: MPC@4 of greater than 20 μg/mL) | Z (key: X: MPC@4 of less than 5 μg/mL; Y: MPC@4 of 5 μg/mL to 20 μg/mL; Z: MPC@4 of greater than 20 μg/mL) | Z (key: X: MPC@4 of less than 5 μg/mL; Y: MPC@4 of 5 μg/mL to 20 μg/mL; Z: MPC@4 of greater than 20 μg/mL) | Z (key: X: MPC@4 of less than 5 μg/mL; Y: MPC@4 of 5 μg/mL to 20 μg/mL; Z: MPC@4 of greater than 20 μg/mL) | Z (key: X: MPC@4 of less than 5 μg/mL; Y: MPC@4 of 5 μg/mL to 20 μg/mL; Z: MPC@4 of greater than 20 μg/mL) | Z (key: X: MPC@4 of less than 5 μg/mL; Y: MPC@4 of 5 μg/mL to 20 μg/mL; Z: MPC@4 of greater than 20 μg/mL) | Y (key: X: MPC@4 of less than 5 μg/mL; Y: MPC@4 of 5 μg/mL to 20 μg/mL; Z: MPC@4 of greater than 20 μg/mL) | Z (key: X: MPC@4 of less than 5 μg/mL; Y: MPC@4 of 5 μg/mL to 20 μg/mL; Z: MPC@4 of greater than 20 μg/mL) | Y (key: X: MPC@4 of less than 5 μg/mL; Y: MPC@4 of 5 μg/mL to 20 μg/mL; Z: MPC@4 of greater than 20 μg/mL)
2 | N[C@H]1CC[C@@H](CC(=O)N[C@H]2CC[C@@H](CC(=O)O)OB2O)CC1 [Compound 50, 2-((3R,6S)-3-(2-(4-aminocyclohexyl)acetamido)-2-hydroxy-1,2-oxaborinan-6-yl)acetic acid] | X (key: X: MPC@4 of less than 5 μg/mL; Y: MPC@4 of 5 μg/mL to 20 μg/mL; Z: MPC@4 of greater than 20 μg/mL) | Z (key: X: MPC@4 of less than 5 μg/mL; Y: MPC@4 of 5 μg/mL to 20 μg/mL; Z: MPC@4 of greater than 20 μg/mL) | Z (key: X: MPC@4 of less than 5 μg/mL; Y: MPC@4 of 5 μg/mL to 20 μg/mL; Z: MPC@4 of greater than 20 μg/mL) | Z (key: X: MPC@4 of less than 5 μg/mL; Y: MPC@4 of 5 μg/mL to 20 μg/mL; Z: MPC@4 of greater than 20 μg/mL) | Z (key: X: MPC@4 of less than 5 μg/mL; Y: MPC@4 of 5 μg/mL to 20 μg/mL; Z: MPC@4 of greater than 20 μg/mL) | Z (key: X: MPC@4 of less than 5 μg/mL; Y: MPC@4 of 5 μg/mL to 20 μg/mL; Z: MPC@4 of greater than 20 μg/mL) | Z (key: X: MPC@4 of less than 5 μg/mL; Y: MPC@4 of 5 μg/mL to 20 μg/mL; Z: MPC@4 of greater than 20 μg/mL) | Z (key: X: MPC@4 of less than 5 μg/mL; Y: MPC@4 of 5 μg/mL to 20 μg/mL; Z: MPC@4 of greater than 20 μg/mL) | Z (key: X: MPC@4 of less than 5 μg/mL; Y: MPC@4 of 5 μg/mL to 20 μg/mL; Z: MPC@4 of greater than 20 μg/mL) | Z (key: X: MPC@4 of less than 5 μg/mL; Y: MPC@4 of 5 μg/mL to 20 μg/mL; Z: MPC@4 of greater than 20 μg/mL) | Z (key: X: MPC@4 of less than 5 μg/mL; Y: MPC@4 of 5 μg/mL to 20 μg/mL; Z: MPC@4 of greater than 20 μg/mL) | Y (key: X: MPC@4 of less than 5 μg/mL; Y: MPC@4 of 5 μg/mL to 20 μg/mL; Z: MPC@4 of greater than 20 μg/mL) | Z (key: X: MPC@4 of less than 5 μg/mL; Y: MPC@4 of 5 μg/mL to 20 μg/mL; Z: MPC@4 of greater than 20 μg/mL) | Z (key: X: MPC@4 of less than 5 μg/mL; Y: MPC@4 of 5 μg/mL to 20 μg/mL; Z: MPC@4 of greater than 20 μg/mL)
3 | NC1(CC(=O)N[C@H]2CC[C@@H](CC(=O)O)OB2O)CCCCC1 [Compound 51, 2-((3R,6S)-3-(2-(1-aminocyclohexyl)acetamido)-2-hydroxy-1,2-oxaborinan-6-yl)acetic acid] | X (key: X: MPC@4 of less than 5 μg/mL; Y: MPC@4 of 5 μg/mL to 20 μg/mL; Z: MPC@4 of greater than 20 μg/mL) | Z (key: X: MPC@4 of less than 5 μg/mL; Y: MPC@4 of 5 μg/mL to 20 μg/mL; Z: MPC@4 of greater than 20 μg/mL) | Z (key: X: MPC@4 of less than 5 μg/mL; Y: MPC@4 of 5 μg/mL to 20 μg/mL; Z: MPC@4 of greater than 20 μg/mL) | Z (key: X: MPC@4 of less than 5 μg/mL; Y: MPC@4 of 5 μg/mL to 20 μg/mL; Z: MPC@4 of greater than 20 μg/mL) | Z (key: X: MPC@4 of less than 5 μg/mL; Y: MPC@4 of 5 μg/mL to 20 μg/mL; Z: MPC@4 of greater than 20 μg/mL) | Y (key: X: MPC@4 of less than 5 μg/mL; Y: MPC@4 of 5 μg/mL to 20 μg/mL; Z: MPC@4 of greater than 20 μg/mL) | Y (key: X: MPC@4 of less than 5 μg/mL; Y: MPC@4 of 5 μg/mL to 20 μg/mL; Z: MPC@4 of greater than 20 μg/mL) | Z (key: X: MPC@4 of less than 5 μg/mL; Y: MPC@4 of 5 μg/mL to 20 μg/mL; Z: MPC@4 of greater than 20 μg/mL) | Z (key: X: MPC@4 of less than 5 μg/mL; Y: MPC@4 of 5 μg/mL to 20 μg/mL; Z: MPC@4 of greater than 20 μg/mL) | Z (key: X: MPC@4 of less than 5 μg/mL; Y: MPC@4 of 5 μg/mL to 20 μg/mL; Z: MPC@4 of greater than 20 μg/mL) | Z (key: X: MPC@4 of less than 5 μg/mL; Y: MPC@4 of 5 μg/mL to 20 μg/mL; Z: MPC@4 of greater than 20 μg/mL) | Y (key: X: MPC@4 of less than 5 μg/mL; Y: MPC@4 of 5 μg/mL to 20 μg/mL; Z: MPC@4 of greater than 20 μg/mL) | Z (key: X: MPC@4 of less than 5 μg/mL; Y: MPC@4 of 5 μg/mL to 20 μg/mL; Z: MPC@4 of greater than 20 μg/mL) | Z (key: X: MPC@4 of less than 5 μg/mL; Y: MPC@4 of 5 μg/mL to 20 μg/mL; Z: MPC@4 of greater than 20 μg/mL)
